According to the supplement of paper PMC7877785:
± gives the uncertainty stated by the source. The uncertainty is large for many entries.

Experiment: self-splicing fitness, log relative to wild type (ln ratio); higher = more splicing; Tetrahymena group I intron in knt gene, E. coli kanamycin selection, DiMSum; sequences stand for … in CUCUCU…GGAGGGAAAAGUUAUCAGGCAUGCACCUGGUAGCUAGUCUUUAAACCAAUAGAUUGCAUCGGUUUAAAAGGCAAGACCGUCAAAUUGCGGGAAAGGGGUCAACAGCCGUUCAGUACCAAGUCUCAGGGGAAACUUUGAGAUGGCCUUGCAAAGGGUAUGGUAAUAAGCUGACGGACAUGGUCCUAACCACGCAGCCAAGUCCUAAGUCAACAGAUCUUCUGUUGAUAUGGAUGCAGUUCACAGACUAAAUGUCGGUCGGGGAAGAUGUAUUCUUCUCAUAAGAUAUAGUCGGACCUCUCCUUAAUGGGAGCUAGCGGAUGAAGUGAUGCAACACUGGAGCCGCUGGGAACUAAUUUGUAUGCGAAAGUAUAUUGAUUAGUUUUGGAGUACUCGUGGUCG
Method in brief: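 Library with all eight P1ex-region intron nucleotides randomised, intron inside the knt kanamycin-resistance gene on pET-22b(+), in E. coli BL21(DE3). Cells grew overnight at 37°C or 30°C on LB agar with or without 25 μg/mL kanamycin (plus 100 μg/mL carbenicillin, 50 μM IPTG, 0.2% rhamnose), in six replicate transformations. Pooled colonies were amplicon-sequenced on Illumina HiSeq 2500. DiMSum fitness is the error-weighted combination of wild-type-normalised replicate fold changes, kanamycin versus none.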

Row | Sequence | self-splicing fitness (ln) (30 °C) | self-splicing fitness (ln) (37 °C)
1 | CGUUAGCAAUAUUACGUCCC | -4.04 ± 0.73 | –
2 | UAACAGCAAUAUUACGCUGA | -3.33 ± 0.2 | -1.61 ± 0.1
3 | AGGGAGCAAUAUUACGUCGG | -3.52 ± 0.58 | –
4 | AAGGAGCAAUAUUACGGUAA | -2.71 ± 0.64 | -2.5 ± 0.63
5 | CUAUAGCAAUAUUACGGCGA | -2.34 ± 0.85 | –
6 | UUUAAGCAAUAUUACGGGCC | -2.97 ± 0.53 | –
7 | GGCGAGCAAUAUUACGCUCG | – | -2.89 ± 0.53
8 | GAGGAGCAAUAUUACGCCAG | -2.65 ± 0.66 | –
9 | UUUGAGCAAUAUUACGAGCC | -1.72 ± 0.73 | –
10 | ACGAAGCAAUAUUACGAGCC | -4.9 ± 0.59 | -3.11 ± 0.6
11 | CUAAAGCAAUAUUACGCCCA | – | -1.7 ± 0.58
12 | CCCGAGCAAUAUUACGCAAC | -2.46 ± 0.51 | -2.23 ± 0.34
13 | UAAGAGCAAUAUUACGACUC | -3.7 ± 1.1 | –
14 | GCACAGCAAUAUUACGGGUC | -3.81 ± 0.17 | -1.62 ± 0.097
15 | AGAGAGCAAUAUUACGAGCA | -2.68 ± 0.46 | -1.31 ± 0.27
16 | GUGAAGCAAUAUUACGCCUC | -1.22 ± 0.25 | -1.09 ± 0.48
17 | UUCGAGCAAUAUUACGACCG | -3.13 ± 0.75 | -1.29 ± 1.2
18 | CCUUAGCAAUAUUACGCUGC | -2.81 ± 0.28 | -2.48 ± 0.54
19 | AUUAAGCAAUAUUACGCGUC | -2.77 ± 0.3 | -2.19 ± 0.38
20 | UAGUAGCAAUAUUACGAUAU | -3.37 ± 0.77 | -3.08 ± 0.74
21 | UCAUAGCAAUAUUACGGACC | -3.96 ± 1 | -2.23 ± 1.1
22 | CUGCAGCAAUAUUACGACAA | -0.992 ± 0.54 | –
23 | AGGGAGCAAUAUUACGCACA | -2.15 ± 0.56 | -0.47 ± 0.67
24 | CAUGAGCAAUAUUACGAUCC | -4.17 ± 0.59 | -2.16 ± 0.55

Row | Sequence | self-splicing fitness (ln) (30 °C) | self-splicing fitness (ln) (37 °C)
25 | GUGGAGCAAUAUUACGAUUG | – | -1.47 ± 0.55
26 | CAACAGCAAUAUUACGCGUA | -1.55 ± 0.093 | -1.06 ± 0.088
27 | GAGGAGCAAUAUUACGAGUA | -3.64 ± 1 | –
28 | UAGGAGCAAUAUUACGGCUC | – | -2.72 ± 0.75
29 | GAUGAGCAAUAUUACGGCCC | -2.12 ± 0.8 | -1 ± 0.92
30 | GGUUAGCAAUAUUACGGACC | -2.02 ± 0.69 | –
31 | UACAAGCAAUAUUACGCAGC | -4 ± 0.42 | -2.63 ± 0.39
32 | UUGUAGCAAUAUUACGCUUU | -4.71 ± 0.51 | –
33 | AUUGAGCAAUAUUACGGAGG | – | -2.95 ± 0.74
34 | AGGGAGCAAUAUUACGUGGU | -4.64 ± 1 | –
35 | GUAAAGCAAUAUUACGCUGA | -1.4 ± 0.072 | -0.903 ± 0.099
36 | AAUGAGCAAUAUUACGGACA | – | -3.28 ± 0.73
37 | ACUUAGCAAUAUUACGUGAC | -2.05 ± 0.21 | -2.54 ± 0.29
38 | CCGAAGCAAUAUUACGCGCU | -4.11 ± 0.61 | –
39 | UGUGAGCAAUAUUACGCAGU | -5.62 ± 1 | –
40 | UACUAGCAAUAUUACGUAAA | -1.66 ± 0.12 | -0.614 ± 0.14
41 | GUCGAGCAAUAUUACGCACC | – | -0.506 ± 1
42 | CGGGAGCAAUAUUACGUACA | – | -2.96 ± 0.53
43 | GCGGAGCAAUAUUACGGGAU | – | -2.39 ± 1.1
44 | CGGAAGCAAUAUUACGUACA | -0.615 ± 0.13 | -0.219 ± 0.15
45 | CCGUAGCAAUAUUACGGUAC | – | -3.52 ± 0.51
46 | GCGCAGCAAUAUUACGCAAG | -3.82 ± 0.23 | -2.52 ± 0.15
47 | UAAUAGCAAUAUUACGGUAC | -3.69 ± 0.43 | -2.37 ± 0.37
48 | GAUGAGCAAUAUUACGCUAA | -1.45 ± 0.61 | -3.39 ± 0.78

Row | Sequence | self-splicing fitness (ln) (30 °C) | self-splicing fitness (ln) (37 °C)
49 | CGUAAGCAAUAUUACGCAGC | -3.12 ± 1.1 | –
50 | GGCGAGCAAUAUUACGCCGC | -3.21 ± 0.76 | -2.91 ± 0.62
51 | AAUAAGCAAUAUUACGGAUG | -2.21 ± 0.1 | -1.39 ± 0.1
52 | CGAUAGCAAUAUUACGUUUA | -3.31 ± 0.52 | -2.57 ± 0.21
53 | UUCAAGCAAUAUUACGCCUG | -3.96 ± 0.73 | –
54 | CGCUAGCAAUAUUACGCUGC | – | -3.29 ± 0.52
55 | GGAGAGCAAUAUUACGCACA | -2.74 ± 0.67 | –
56 | CUGGAGCAAUAUUACGUUUU | -4.3 ± 0.72 | –
57 | AGCGAGCAAUAUUACGCUAC | -3.34 ± 1.1 | -1.98 ± 0.52
58 | CGUGAGCAAUAUUACGCUGC | – | -3.03 ± 0.53
59 | CUGGAGCAAUAUUACGCGAA | 0.285 ± 1.1 | -0.375 ± 0.68
60 | UCAUAGCAAUAUUACGUCCC | – | -1.47 ± 1.2
61 | GCCGAGCAAUAUUACGCCAA | – | -1.92 ± 0.55
62 | UCUAAGCAAUAUUACGUUCC | -3.03 ± 1.1 | -1.6 ± 0.54
63 | UGGCAGCAAUAUUACGAAUC | – | -2.12 ± 0.57
64 | UUUGAGCAAUAUUACGAAUA | – | -1.29 ± 1.2
65 | AAGGAGCAAUAUUACGAGCC | – | -2.64 ± 1.1
66 | CACAAGCAAUAUUACGCAGC | – | -3.88 ± 0.72
67 | CUGCAGCAAUAUUACGUCAC | – | -2.28 ± 0.58
68 | AAGGAGCAAUAUUACGUCAC | -3.93 ± 0.74 | –
69 | GCACAGCAAUAUUACGCACG | -2.06 ± 0.11 | -0.889 ± 0.1
70 | ACGUAGCAAUAUUACGGUGA | -2.3 ± 0.2 | -0.727 ± 0.15
71 | GAGGAGCAAUAUUACGAGGA | -2.33 ± 0.84 | –
72 | AAGGAGCAAUAUUACGCAUA | – | -1.95 ± 0.69

Whole records as entered above:
GCACAGCAAUAUUACGGGUC as listed: self-splicing fitness (ln) (30 °C) = -3.81 ± 0.17; self-splicing fitness (ln) (37 °C) = -1.62 ± 0.097
CUGGAGCAAUAUUACGCGAA as listed: self-splicing fitness (ln) (30 °C) = 0.285 ± 1.1; self-splicing fitness (ln) (37 °C) = -0.375 ± 0.68
CUGCAGCAAUAUUACGUCAC as listed: self-splicing fitness (ln) (37 °C) = -2.28 ± 0.58
AUUAAGCAAUAUUACGCGUC as listed: self-splicing fitness (ln) (30 °C) = -2.77 ± 0.3; self-splicing fitness (ln) (37 °C) = -2.19 ± 0.38
